No constants are given. Whether binding was seen depends on the method and setting. Binding seen in cells or lysates may run through a third protein. Some entries that bind do so weakly or less than the wild type. Sequences can lack the tags named with a protein.
Molecular target: T1, MYC-PIF3 (Arabidopsis thaliana) (UniProt O80536)
T1 sequence: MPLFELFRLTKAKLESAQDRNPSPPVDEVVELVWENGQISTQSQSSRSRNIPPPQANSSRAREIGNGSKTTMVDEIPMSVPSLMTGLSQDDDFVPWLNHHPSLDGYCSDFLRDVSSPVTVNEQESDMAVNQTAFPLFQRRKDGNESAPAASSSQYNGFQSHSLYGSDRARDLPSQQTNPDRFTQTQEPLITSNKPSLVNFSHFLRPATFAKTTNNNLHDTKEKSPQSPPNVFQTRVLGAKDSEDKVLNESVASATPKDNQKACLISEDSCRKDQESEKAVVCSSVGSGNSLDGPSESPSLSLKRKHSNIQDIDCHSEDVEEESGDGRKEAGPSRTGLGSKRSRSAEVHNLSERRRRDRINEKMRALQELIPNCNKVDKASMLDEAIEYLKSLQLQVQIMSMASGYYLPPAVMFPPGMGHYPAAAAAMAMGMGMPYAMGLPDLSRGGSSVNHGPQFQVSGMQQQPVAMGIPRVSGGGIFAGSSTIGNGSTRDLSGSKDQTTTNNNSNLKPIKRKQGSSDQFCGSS
Experiment: co-IP; extracts (kinase buffer with 40 μM MG132) of dark-grown PIF3 OE seedlings exposed to 30 μmol m^-2 s^-1 R light or 8 μmol m^-2 s^-1 B light for 0, 30 and 60 s; anti-MYC beads 3.5 h at 4 °C in the dark; immunoblot with anti-MPK6 and anti-MYC

Amino acid sequences for entries named in this document (tags omitted).
UniProt Q39026: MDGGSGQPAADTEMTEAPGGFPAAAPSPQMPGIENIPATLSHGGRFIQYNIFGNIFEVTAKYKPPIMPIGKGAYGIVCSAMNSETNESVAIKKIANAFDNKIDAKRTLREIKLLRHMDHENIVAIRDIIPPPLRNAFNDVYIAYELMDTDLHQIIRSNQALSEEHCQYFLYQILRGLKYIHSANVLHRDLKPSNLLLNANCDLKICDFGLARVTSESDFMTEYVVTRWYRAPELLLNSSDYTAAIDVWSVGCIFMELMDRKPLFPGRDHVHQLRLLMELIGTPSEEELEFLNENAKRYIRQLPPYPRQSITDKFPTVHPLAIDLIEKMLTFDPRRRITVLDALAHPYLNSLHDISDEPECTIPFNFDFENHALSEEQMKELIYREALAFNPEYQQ

binding: binds
Substance: MPK6 (from UniProt Q39026 1-395) (enzyme)
